Source: US9594073B2, “Test solvent for evaluating the compatibility of biologically active substances and graft copolymers” (ABBVIE DEUTSCHLAND GMBH & CO KG, priority 2010, dated 2017)
For at least one compound, name, drawing or mass did not settle the structure.

Experiment: Homogeneity of melt extrudates with Soluplus (optical microscope)
Type: physicochemical
Protocol: Samples were prepared by melt extrusions of mixtures consisting of fenofibrate or ibuprofen and Soluplus®. […] Aliquots of 50 g of the powdery mixtures were extruded on a laboratory extruder (Rondol l (10 mm) Rondol Technology Ltd. Staffordshire GB) using a conveying screw equipped with two kneading elements at about 120° C. and 100 rpm. The powdery mixtures were continuously metered in via a vibratory feeder. The extrudate exiting the extruder was passed through a calendar with two smooth rollers arranged at a gap distance of 0.4 mm. Calendered sheets having a thickness of about 1 mm were thus obtained. Pieces of 2 mm×2 mm were cut out from the sheets and homogeneity of the pieces was examined using an optical microscope (Leica DMLM).

CC(C)OC(=O)C(C)(C)Oc1ccc(C(=O)c2ccc(Cl)cc2)cc1 [fenofibrate, Fenofibrate]
Amount of crystals in extrudate (fenofibrate concentration 11 wt %): no crystals | Amount of crystals in extrudate (fenofibrate concentration 14 wt %): low | Amount of crystals in extrudate (fenofibrate concentration 18 wt %): moderate | Amount of crystals in extrudate (fenofibrate concentration 22 wt %): moderate | Amount of crystals in extrudate (fenofibrate concentration 26 wt %): moderate to high
